Assay results: publication PMC10234410
For at least one entry, the source does not settle the construct or the ends of the probe.

Sequences of proteins named here, by UniProt entry; tags and fusion partners are left off.
UniProt M9PFG6, entry or part of it: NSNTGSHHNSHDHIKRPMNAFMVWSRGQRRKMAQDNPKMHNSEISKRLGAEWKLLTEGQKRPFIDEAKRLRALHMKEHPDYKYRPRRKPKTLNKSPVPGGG

Target: Sox21aHMG-BD (Drosophila melanogaster) (UniProt M9PFG6)
Assay: EMSA
Conditions: 25 mM HEPES pH 7.5, 40 mM KCl, 3 mM DTT, 10% glycerol, 0.1 mM EDTA, 0.5 mg/ml BSA, 0.5 mg/ml poly-glutamate, 25 C, 30 min; 6% native PAGE; recombinant protein; residues 108-208; protein details: His-tag at C-terminus (pET-28b); label: Cy5; probe letters rebuilt from the primers and the genome

“AGTCAGTAGAGATAAGTGCGCAGAGCAATAGGAAAAAATATTGCGCTCAATTCGAACAGAGTAAACGCCAGTAGGTAAATTCAAAAGGGTAACGGCCATAGAATTTGTTGTTCAACACTCAACAAAATACCGCGATACATACCAGAAAGTGTGCGATAGCCAGCGAAACGGGCACACCAATTCAGCTGACGCTTCACGTCCAATTCATTTTGGCATTTAAAAAATCGAACGGTTTCGGCGCGTTCTCCGCTTTGTGCTTGGTTTTCGTGCATTCTTATCTCTACTGACT (double strand) [Cy5-labeled F2-4 probe]”: binds.
